Experimental data as given in patent US10829495B2, “Thieno-pyrimidine derivatives and uses thereof” (ZHEJIANG JIANFENG-YIEN BIOTECHNOLOGY CO., LTD., priority 2015, dated 2020).

By UniProt entry, the sequences of proteins in these tests, tags left out. Residues count along the entry.
UniProt P00533, 25-1210 T790M limits assumed: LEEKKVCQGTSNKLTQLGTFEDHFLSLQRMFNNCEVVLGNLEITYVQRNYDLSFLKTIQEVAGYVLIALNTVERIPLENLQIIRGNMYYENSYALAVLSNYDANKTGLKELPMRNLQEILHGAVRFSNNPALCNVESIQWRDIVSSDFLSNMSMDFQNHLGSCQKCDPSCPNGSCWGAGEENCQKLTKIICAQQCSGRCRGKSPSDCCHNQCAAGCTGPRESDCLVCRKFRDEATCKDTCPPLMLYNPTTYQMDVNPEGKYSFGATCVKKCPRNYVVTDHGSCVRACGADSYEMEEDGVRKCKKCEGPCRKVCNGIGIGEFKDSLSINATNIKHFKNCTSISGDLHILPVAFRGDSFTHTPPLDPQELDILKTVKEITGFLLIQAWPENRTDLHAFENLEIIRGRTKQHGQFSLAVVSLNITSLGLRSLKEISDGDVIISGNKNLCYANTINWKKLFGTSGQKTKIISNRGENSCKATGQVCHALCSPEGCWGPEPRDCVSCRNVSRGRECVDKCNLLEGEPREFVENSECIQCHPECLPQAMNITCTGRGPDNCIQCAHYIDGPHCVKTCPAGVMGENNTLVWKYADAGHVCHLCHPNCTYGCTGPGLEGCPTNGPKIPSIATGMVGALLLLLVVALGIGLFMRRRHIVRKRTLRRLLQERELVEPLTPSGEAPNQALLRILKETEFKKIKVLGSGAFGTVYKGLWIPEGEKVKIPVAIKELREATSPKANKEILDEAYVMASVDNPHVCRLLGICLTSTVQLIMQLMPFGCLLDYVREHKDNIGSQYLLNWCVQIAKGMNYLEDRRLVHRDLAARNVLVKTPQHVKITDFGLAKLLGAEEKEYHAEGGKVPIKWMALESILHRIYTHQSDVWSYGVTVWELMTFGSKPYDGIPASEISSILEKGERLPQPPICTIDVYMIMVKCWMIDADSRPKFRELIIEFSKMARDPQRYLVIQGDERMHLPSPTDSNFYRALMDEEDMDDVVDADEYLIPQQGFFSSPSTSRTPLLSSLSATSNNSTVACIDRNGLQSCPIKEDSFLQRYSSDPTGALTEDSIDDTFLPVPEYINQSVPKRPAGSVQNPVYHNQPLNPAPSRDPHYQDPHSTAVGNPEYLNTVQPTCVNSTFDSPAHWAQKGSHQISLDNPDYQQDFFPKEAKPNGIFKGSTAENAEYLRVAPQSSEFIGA

Assays:
EGFR T790M = EGFR T790M (Homo sapiens, UniProt P00533, T790M); experiment: EGFR enzyme assay; conditions: read-out: T790M (IC50), T790M mutant
NCI-H1975 cells = experiment: Efficacy studies in tumor bearing mice (NCI-H1975 xenograft); conditions: female nu/nu mice, subcutaneous NCI-H1975 tumors, orally at 40 mg/kg daily

## C=CC(=O)Nc1cc(Nc2nc(-c3cn(C)c4ccccc34)c3ccsc3n2)c(OC)cc1N(C)CCN(C)C
EGFR T790M
  IC50: < 100 nM
NCI-H1975 cells
  Tumor growth inhibition (%): >50%

Structures were worked out from names or drawings and are uncertain.
